Data: PMC8346139, “Synthesis of New Tricyclic 1,2-Thiazine Derivatives with Anti-Inflammatory Activity” (International Journal of Molecular Sciences, 2021)

Assay: Differential scanning calorimetry (DSC) of DPPC model membranes
Type: physicochemical
Conditions: pH 7.4, ±SD
[1] = molar ratio compound:lipid 0.06
[2] = molar ratio compound:lipid 0.08
[3] = molar ratio compound:lipid 0.12

Structure (SMILES)	DPPC ΔH (transition enthalpy changes) [1]	DPPC ΔH (transition enthalpy changes) [2]	DPPC ΔH (transition enthalpy changes) (molar ratio compound:lipid 0.1)	DPPC ΔH (transition enthalpy changes) [3]
O=C(C1=C(O)c2ccccc2S(=O)(=O)N1)c1ccccc1 [Compound 4a]	42.9 ± 2.29 J/g	40.3 ± 0.85 J/g	35.2 ± 0.99 J/g	37.8 ± 0.43 J/g
O=C(C1=C(O)c2ccccc2S(=O)(=O)N1)c1ccc(Cl)cc1 [Compound 4c]	40.0 ± 1.94 J/g	33.9 ± 1.41 J/g	30.7 ± 0.11 J/g	24.4 ± 1.16 J/g
Cc1ccc(C(=O)C2=C(O)c3ccccc3S(=O)(=O)N2)cc1 [Compound 4d]	39.2 ± 1.71 J/g	31.2 ± 1.78 J/g	25.1 ± 2.27 J/g	23.4 ± 4.41 J/g
O=C1C2=C(c3ccccc3)OCCN2S(=O)(=O)c2ccccc21 [Compound 5, 6,6-dioxo-1-phenyl-3,4-dihydro-[1,4] oxazino [4,3-b][1,2]benzothiazin-11-one]	44.2 ± 1.43 J/g	33.5 ± 0.09 J/g	34.2 ± 0.79 J/g	29.3 ± 1.61 J/g
O=C1C2=C(c3ccccc3)OCCCN2S(=O)(=O)c2ccccc21 [Compound 6a, 7,7-dioxo-1-phenyl-4,5-dihydro-3H-[1,4]oxazepino[4,3-b][1,2]benzothiazin-12-one]	38.2 ± 0.20 J/g	34.6 ± 0.27 J/g	32.5 ± 0.12 J/g	35.1 ± 0.18 J/g
O=C1C2=C(c3ccc(Br)cc3)OCCCN2S(=O)(=O)c2ccccc21 [Compound 6b, 1-(4-bromophenyl)-7,7-dioxo-4,5-dihydro-3H-[1,4]oxazepino[4,3-b][1,2]benzothiazin-12-one]	42.4 ± 0.06 J/g	33.4 ± 0.52 J/g	22.6 ± 1.43 J/g	28.5 ± 0.81 J/g
O=C1C2=C(c3ccc(Cl)cc3)OCCCN2S(=O)(=O)c2ccccc21 [Compound 6c, 1-(4-chlorophenyl)-7,7-dioxo-4,5-dihydro-3H-[1,4]oxazepino[4,3-b][1,2]benzothiazin-12-one]	39.6 ± 0.81 J/g	35.4 ± 0.01 J/g	34.2 ± 0.29 J/g	34.9 ± 3.09 J/g
Cc1ccc(C2=C3C(=O)c4ccccc4S(=O)(=O)N3CCCO2)cc1 [Compound 6d, 7,7-dioxo-1-(p-tolyl)-4,5-dihydro-3H-[1,4]oxazepino[4,3-b][1,2]benzothiazin-12-one]	40.2 ± 0.12 J/g	36.1 ± 0.60 J/g	29.5 ± 0.19 J/g	29.6 ± 0.31 J/g
COc1ccc(C2=C3C(=O)c4ccccc4S(=O)(=O)N3CCCO2)cc1 [Compound 6e, 1-(4-methoxyphenyl)-7,7-dioxo-4,5-dihydro-3H-[1,4]oxazepino[4,3-b][1,2]benzothiazin-12-one]	42.5 ± 1.51 J/g	38.5 ± 0.53 J/g	37.4 ± 0.43 J/g	33.0 ± 0.51 J/g
O=C1C2=C(c3ccccc3)OCCCCN2S(=O)(=O)c2ccccc21 [Compound 7, 8,8-dioxo-1-phenyl-3,4,5,6-tetrahydro-[1,4]oxazocino[4,3-b][1,2]benzothiazin-13-one]	44.0 ± 2.06 J/g	38.3 ± 1.17 J/g	36.1 ± 0.64 J/g	42.2 ± 1.43 J/g
